Consider one sequence from publication PMC5996148.

Sequences of proteins named here, by UniProt entry; tags and fusion partners are left off. A change or cut given only in a name is not applied to a line headed by its entry.
UniProt Q15059: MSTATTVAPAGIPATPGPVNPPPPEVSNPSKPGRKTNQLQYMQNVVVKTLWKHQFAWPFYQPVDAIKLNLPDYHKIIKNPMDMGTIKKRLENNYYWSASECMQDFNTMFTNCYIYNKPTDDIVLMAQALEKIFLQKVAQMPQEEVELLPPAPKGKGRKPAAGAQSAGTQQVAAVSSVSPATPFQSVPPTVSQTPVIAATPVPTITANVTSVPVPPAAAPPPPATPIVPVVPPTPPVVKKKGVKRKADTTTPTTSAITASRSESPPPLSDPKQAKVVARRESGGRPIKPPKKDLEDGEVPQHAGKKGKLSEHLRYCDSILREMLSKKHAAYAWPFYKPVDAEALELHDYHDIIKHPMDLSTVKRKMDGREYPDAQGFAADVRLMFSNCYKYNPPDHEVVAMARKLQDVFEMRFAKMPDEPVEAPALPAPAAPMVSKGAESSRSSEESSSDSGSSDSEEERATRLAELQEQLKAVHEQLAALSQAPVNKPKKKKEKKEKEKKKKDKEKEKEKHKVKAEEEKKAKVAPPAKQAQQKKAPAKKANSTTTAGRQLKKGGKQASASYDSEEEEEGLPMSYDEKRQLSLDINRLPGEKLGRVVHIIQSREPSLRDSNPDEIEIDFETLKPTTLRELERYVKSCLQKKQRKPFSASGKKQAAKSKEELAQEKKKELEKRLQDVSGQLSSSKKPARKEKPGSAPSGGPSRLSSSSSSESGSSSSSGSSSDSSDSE

“And” between values parts separate entries of the source, which are not always exact repeats. Equal values may be shown once. The list shows a part of the results. For some assays here: The source does not settle which construct or isoform was used.

Common to all, as to test: protein microarray (ProtoArray v5.0), streptavidin-Alexa Fluor 647
Settings in all cases: 3'-biotin; 20 mM Tris (pH 7.5), 5 mM MgCl2, 100 mM KCl, 0.1% Tween-20, A/T-rich and random oligonucleotide blockers; temperature not stated; high values mean tight binding

Experiment [1] deals with BLOC1S2 (human).
Experiment [2] has as its system BLVRA (human).
The test system of experiment [3] is BLVRB (human).
The subject of experiment [4] is BMF (human).
The subject of experiment [5] is BMPR1B (human).
In experiment [6] the test system is BMX (human).
The test system of experiment [7] is BNIP1 (human).
In experiment [8] the test system is BNIP3L (human).
For experiment [9], the target named is BRD3 (UniProt Q15059).
In experiment [10] the test system is BRD9 (human).
Experiment [11] concerns BRICHOS domain-containing protein C16orf79 (human).
The test system of experiment [12] is BRWD1 (human).
The target in experiment [13] is T1, BSG (UniProt P35613).
T1 sequence: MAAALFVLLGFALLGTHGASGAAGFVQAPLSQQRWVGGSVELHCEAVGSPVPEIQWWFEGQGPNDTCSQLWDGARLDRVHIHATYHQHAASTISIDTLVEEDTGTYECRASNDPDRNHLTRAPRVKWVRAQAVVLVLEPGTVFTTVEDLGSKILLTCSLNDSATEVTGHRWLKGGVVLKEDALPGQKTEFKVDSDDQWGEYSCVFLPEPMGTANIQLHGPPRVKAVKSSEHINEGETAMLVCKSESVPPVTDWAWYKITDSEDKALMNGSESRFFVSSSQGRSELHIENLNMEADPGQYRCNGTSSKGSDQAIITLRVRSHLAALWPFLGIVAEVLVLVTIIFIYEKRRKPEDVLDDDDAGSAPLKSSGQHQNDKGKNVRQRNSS

The subject of experiment [14] is BSND (human).
In experiment [15] the test system is BST1 (human).
The subject of experiment [16] is BTB/POZ domain-containing protein KCTD9 (human).
In experiment [17] the test system is BTBD10 (human).
Experiment [18] concerns BTG2 (human).
For experiment [19], the system named is BTN3A2 (human).
For experiment [20], the system named is BZW2 (human).

On to “GGGAGGCTGAGGCAGG [G4-1 biotinylated (PQS2)]”, for which the binding signal in experiment [1] was -0.342 z-score; in experiment [2] it was -0.306 z-score; in [3] it was -0.324 z-score; in [4], -0.35 z-score and -0.361 z-score; in experiment [5], -0.23 z-score; in experiment [6], -0.283 z-score. In addition, the binding signal in experiment [7] was -0.3 z-score; in [8], -0.319 z-score; in [9] it was 8.82 z-score; in experiment [10], -0.348 z-score; in experiment [11], -0.267 z-score; in experiment [12], -0.238 z-score. Moreover, the binding signal in experiment [13] was -0.345 z-score; in [14], -0.317 z-score; in experiment [15], -0.304 z-score; in experiment [16], -0.306 z-score; in experiment [17], -0.26 z-score; in [18], -0.345 z-score. For the same sequence, the binding signal in [19] is -0.303 z-score; in experiment [20] it was -0.278 z-score.
